Laboratory results taken from paper doi:10.1101/2021.12.08.471779.
Positions count from the first letter of the chain named. These are yes or no findings as the source states them, for the method shown. In cells and extracts the contact can be indirect. Some binding calls cover weakened binding; strength is not graded here.

Sequences of proteins named here, by UniProt entry; tags and fusion partners are left off. A change or cut given only in a name is not applied to a line headed by its entry.
UniProt P02929, whole entry, looked up, stated change not applied: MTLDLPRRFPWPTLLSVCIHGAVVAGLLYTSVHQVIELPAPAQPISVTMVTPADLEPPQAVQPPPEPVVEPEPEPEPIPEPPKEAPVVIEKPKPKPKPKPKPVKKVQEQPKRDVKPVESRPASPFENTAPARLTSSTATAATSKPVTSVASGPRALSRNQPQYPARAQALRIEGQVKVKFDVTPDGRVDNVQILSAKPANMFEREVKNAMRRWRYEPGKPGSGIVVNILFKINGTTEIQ

How the values were obtained:
Assay in all cases: cross-linking
[1] = target: T1, FepA D298C (Escherichia coli K-12) (UniProt P05825)
T1 sequence: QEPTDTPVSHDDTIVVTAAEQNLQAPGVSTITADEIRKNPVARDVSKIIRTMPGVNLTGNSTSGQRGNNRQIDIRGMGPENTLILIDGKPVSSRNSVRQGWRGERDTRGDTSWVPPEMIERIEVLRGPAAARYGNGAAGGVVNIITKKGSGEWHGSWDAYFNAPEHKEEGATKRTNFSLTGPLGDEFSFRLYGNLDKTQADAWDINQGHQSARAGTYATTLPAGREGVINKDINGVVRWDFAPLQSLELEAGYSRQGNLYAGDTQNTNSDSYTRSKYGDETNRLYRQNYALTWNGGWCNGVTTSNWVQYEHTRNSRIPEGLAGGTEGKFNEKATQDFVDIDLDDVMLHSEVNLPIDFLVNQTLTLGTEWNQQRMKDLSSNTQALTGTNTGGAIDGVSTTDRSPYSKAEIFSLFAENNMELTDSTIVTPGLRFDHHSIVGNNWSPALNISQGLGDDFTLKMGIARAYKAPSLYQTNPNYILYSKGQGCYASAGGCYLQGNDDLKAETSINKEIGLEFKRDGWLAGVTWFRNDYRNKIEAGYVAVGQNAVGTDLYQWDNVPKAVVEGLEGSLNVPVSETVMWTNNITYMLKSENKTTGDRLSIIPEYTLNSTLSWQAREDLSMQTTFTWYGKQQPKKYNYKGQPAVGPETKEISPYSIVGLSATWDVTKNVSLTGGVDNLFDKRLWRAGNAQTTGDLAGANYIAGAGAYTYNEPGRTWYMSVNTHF

[2] = target: T2, FepA S92C (Escherichia coli K-12) (UniProt P05825)
T2 sequence: T1 sequence with S92C, C298D

[3] = target: T3, FepA A42C (Escherichia coli K-12) (UniProt P05825)
T3 sequence: T1 sequence with A42C, C298D

binding [1] | binding [2] | binding [3] | Substance
binds |  |  | TonB C18G H20A R204C (from UniProt P02929 1-239)
no binding | no binding | no binding | TonB C18G A209C (from UniProt P02929 1-239)
no binding | no binding | no binding | TonB C18G V206C (from UniProt P02929 1-239)
binds weakly | no binding | no binding | TonB C18G N208C (from UniProt P02929 1-239)
binds | no binding | no binding | TonB C18G R204C (from UniProt P02929 1-239)
 |  | no binding | TonB C18G H20A Q160C (from UniProt P02929 1-239)

The next lines start with the substance.

Substance | binding [1] | binding [2] | binding [3]
TonB C18G Q160C (from UniProt P02929 1-239) | no binding | no binding | binds
TonB C18G R214C (from UniProt P02929 1-239) |  | no binding | no binding
TonB C18G R212C (from UniProt P02929 1-239) |  | no binding | no binding
TonB C18G M201C (from UniProt P02929 1-239) |  | no binding | no binding
